PubChem BioAssay AID1224826 – NIAID, 2016
Shown is a random part of about 17,000 reagents. About 1,110 of them (6.6%) count as active. 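Active means lowered or raised reporter signal; replicate intensities are raw and not normalised per plate.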 Entries without a mark were called inactive. Reagents against one gene are numbered here. Not all columns of the deposit are shown.

Screen: 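Genes that change LPS-induced Tnf promoter activity in mouse macrophages when knocked down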 (primary screen)
System: RAW264.7 G9 macrophages from mouse bearing reporters for p65 (GFP) and the Tnf promoter (mCherry)
Knock-down reagent: siRNA pool against mouse genes, 100 nM
Duration: 16 h of LPS stimulation, after 2 days of siRNA transfection
Conditions: bacterial lipopolysaccharide (Salmonella minnesota R595), 10 ng/ml
Detection: 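Imaged Tnf reporter mCherry in nuclei, minus background, normalised per plate to the median and expressed as robust z-scores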
Reading the numbers: Tnf reporter robust z-score: higher = stronger Tnf promoter reporter signal after LPS
Hit rule: 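a well counts as active at a score of -1.3 or below (Tlr4 knock-down control median) or above 3 (raised signal); controls and wells holding fewer than 50 cells are excluded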
Meaning of the calls: active = Tnf reporter clearly lowered or raised; inactive = no clear change in Tnf reporter

A630038E17Rik (GeneID 219065): Tnf reporter robust z-score = 0.49; fewer than 50 cells in well = enough cells in well
Ccn3 (GeneID 18133): Tnf reporter robust z-score = 0.75; fewer than 50 cells in well = enough cells in well
Foxf1 (GeneID 15227): Tnf reporter robust z-score = 0.74; fewer than 50 cells in well = enough cells in well
B3gnt5 (GeneID 108105): Tnf reporter robust z-score = 0.19; fewer than 50 cells in well = enough cells in well
Krtap21-1 (GeneID 170656) #1: Tnf reporter robust z-score = 1.24; fewer than 50 cells in well = enough cells in well
Krtap21-1 (GeneID 170656) #2: Tnf reporter robust z-score = -0.11; fewer than 50 cells in well = enough cells in well
Spc24 (GeneID 67629): fewer than 50 cells in well = fewer than 50 cells per well; well left out of calls
Akap3 (GeneID 11642): Tnf reporter robust z-score = -1.35 (active); fewer than 50 cells in well = enough cells in well

Continued; the last 2 above are carried over.
Spc24 (GeneID 67629): fewer than 50 cells in well = fewer than 50 cells per well; well left out of calls
Akap3 (GeneID 11642): Tnf reporter robust z-score = -1.35 (active); fewer than 50 cells in well = enough cells in well
Bbs4 (GeneID 102774): Tnf reporter robust z-score = 1.42; fewer than 50 cells in well = enough cells in well
Srebf1 (GeneID 20787): Tnf reporter robust z-score = 0.1; fewer than 50 cells in well = enough cells in well
Slc2a10 (GeneID 170441): fewer than 50 cells in well = fewer than 50 cells per well; well left out of calls
Dnajc12 (GeneID 30045): Tnf reporter robust z-score = 5.31 (active); fewer than 50 cells in well = enough cells in well
Pramel3a (GeneID 83565): Tnf reporter robust z-score = 1.5; fewer than 50 cells in well = enough cells in well
Rsph9 (GeneID 75564): Tnf reporter robust z-score = 0.38; fewer than 50 cells in well = enough cells in well
Tas2r135 (GeneID 387512): Tnf reporter robust z-score = 0.7; fewer than 50 cells in well = enough cells in well
Cdc42ep3 (GeneID 260409): Tnf reporter robust z-score = 0.77; fewer than 50 cells in well = enough cells in well
Jam3 (GeneID 83964): Tnf reporter robust z-score = 2.09; fewer than 50 cells in well = enough cells in well
Or5p1 (GeneID 258731): fewer than 50 cells in well = fewer than 50 cells per well; well left out of calls
Cct7 (GeneID 12468): Tnf reporter robust z-score = 2.36; fewer than 50 cells in well = enough cells in well
Cpa3 (GeneID 12873): Tnf reporter robust z-score = -1.02; fewer than 50 cells in well = enough cells in well
Metap1d (GeneID 66559): Tnf reporter robust z-score = 0.76; fewer than 50 cells in well = enough cells in well
